Literature values, collected in patent US5739385A, “Process for preparing optically active carboxylic acids” (Union Carbide Chemicals & Plastics Technology Corporation, priority 1995, dated 1998).

Settings: background, in words; cited from earlier work

COc1ccc2cc([C@@H](C)C(=O)O)ccc2c1 [R enantiomer]
liver toxicity: liver toxin
